{"sequences": {"note": "By UniProt entry, the sequences of proteins in these tests, tags left out. Where a name states a change or a piece, a line headed by the entry shows the natural chain unless it says otherwise.", "UniProt Q7Z2E3": "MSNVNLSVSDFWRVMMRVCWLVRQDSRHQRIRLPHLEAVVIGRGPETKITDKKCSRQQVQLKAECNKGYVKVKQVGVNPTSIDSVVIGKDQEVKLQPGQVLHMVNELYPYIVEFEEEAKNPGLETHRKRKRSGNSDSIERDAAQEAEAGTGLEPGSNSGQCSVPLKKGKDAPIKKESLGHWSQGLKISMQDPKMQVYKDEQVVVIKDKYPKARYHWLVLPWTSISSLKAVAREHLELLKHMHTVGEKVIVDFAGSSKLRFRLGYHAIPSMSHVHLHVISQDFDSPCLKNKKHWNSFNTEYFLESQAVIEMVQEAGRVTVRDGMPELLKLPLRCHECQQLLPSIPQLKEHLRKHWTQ", "UniProt P53367": "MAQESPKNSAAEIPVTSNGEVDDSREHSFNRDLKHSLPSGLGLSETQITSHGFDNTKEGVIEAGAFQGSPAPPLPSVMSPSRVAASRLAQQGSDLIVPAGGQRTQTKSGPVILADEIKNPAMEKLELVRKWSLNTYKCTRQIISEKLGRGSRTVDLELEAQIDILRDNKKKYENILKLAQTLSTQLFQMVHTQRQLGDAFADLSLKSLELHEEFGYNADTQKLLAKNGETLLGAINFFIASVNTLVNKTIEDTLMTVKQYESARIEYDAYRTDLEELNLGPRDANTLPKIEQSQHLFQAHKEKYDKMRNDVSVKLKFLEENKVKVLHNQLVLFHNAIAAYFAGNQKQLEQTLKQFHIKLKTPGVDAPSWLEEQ", "UniProt Q9Y6D6": "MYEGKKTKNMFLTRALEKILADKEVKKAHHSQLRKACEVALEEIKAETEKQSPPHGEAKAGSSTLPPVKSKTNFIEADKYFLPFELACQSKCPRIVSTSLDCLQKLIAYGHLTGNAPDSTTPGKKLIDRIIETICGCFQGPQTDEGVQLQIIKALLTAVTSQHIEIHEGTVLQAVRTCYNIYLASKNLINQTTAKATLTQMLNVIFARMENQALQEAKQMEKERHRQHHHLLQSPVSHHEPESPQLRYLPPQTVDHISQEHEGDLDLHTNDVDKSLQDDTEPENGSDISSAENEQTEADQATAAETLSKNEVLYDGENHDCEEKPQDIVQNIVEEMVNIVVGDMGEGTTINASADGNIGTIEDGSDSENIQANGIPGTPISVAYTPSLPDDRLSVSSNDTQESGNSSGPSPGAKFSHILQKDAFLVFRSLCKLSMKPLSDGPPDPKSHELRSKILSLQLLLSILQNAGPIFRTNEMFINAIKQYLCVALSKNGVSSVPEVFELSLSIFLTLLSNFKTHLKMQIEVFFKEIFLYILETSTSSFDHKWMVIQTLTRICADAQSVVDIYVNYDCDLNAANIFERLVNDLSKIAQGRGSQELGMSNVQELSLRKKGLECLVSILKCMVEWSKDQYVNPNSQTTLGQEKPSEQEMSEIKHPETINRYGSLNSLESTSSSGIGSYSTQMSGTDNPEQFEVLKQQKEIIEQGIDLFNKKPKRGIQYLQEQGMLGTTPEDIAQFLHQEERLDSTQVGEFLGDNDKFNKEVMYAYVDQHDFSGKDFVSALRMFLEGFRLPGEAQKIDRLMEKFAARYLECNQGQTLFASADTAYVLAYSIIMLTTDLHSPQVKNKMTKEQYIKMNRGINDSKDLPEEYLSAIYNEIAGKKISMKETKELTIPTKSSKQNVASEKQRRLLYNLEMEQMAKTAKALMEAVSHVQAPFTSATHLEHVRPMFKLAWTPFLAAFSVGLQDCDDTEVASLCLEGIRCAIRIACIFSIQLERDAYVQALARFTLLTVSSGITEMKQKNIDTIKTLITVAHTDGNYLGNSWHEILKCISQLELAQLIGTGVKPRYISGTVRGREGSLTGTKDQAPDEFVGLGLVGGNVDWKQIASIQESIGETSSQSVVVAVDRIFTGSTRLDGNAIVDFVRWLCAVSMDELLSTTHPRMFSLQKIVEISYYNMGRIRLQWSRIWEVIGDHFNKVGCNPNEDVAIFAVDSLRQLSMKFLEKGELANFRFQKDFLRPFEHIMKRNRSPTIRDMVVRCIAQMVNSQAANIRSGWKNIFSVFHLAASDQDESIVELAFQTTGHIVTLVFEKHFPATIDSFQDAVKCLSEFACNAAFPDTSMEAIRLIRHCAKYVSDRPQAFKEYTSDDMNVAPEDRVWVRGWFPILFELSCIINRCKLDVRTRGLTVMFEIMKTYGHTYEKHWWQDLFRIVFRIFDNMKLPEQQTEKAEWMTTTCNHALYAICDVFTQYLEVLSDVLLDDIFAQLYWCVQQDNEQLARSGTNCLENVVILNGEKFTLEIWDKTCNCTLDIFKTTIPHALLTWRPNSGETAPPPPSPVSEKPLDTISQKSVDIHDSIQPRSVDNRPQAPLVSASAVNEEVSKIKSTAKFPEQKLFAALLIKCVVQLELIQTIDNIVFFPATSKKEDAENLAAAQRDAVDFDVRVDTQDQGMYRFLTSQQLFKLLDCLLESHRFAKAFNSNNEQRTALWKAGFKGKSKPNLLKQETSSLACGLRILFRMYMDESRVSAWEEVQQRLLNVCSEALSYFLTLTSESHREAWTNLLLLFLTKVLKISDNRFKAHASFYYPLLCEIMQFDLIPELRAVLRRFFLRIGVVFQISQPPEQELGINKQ", "UniProt Q6ZUM4": "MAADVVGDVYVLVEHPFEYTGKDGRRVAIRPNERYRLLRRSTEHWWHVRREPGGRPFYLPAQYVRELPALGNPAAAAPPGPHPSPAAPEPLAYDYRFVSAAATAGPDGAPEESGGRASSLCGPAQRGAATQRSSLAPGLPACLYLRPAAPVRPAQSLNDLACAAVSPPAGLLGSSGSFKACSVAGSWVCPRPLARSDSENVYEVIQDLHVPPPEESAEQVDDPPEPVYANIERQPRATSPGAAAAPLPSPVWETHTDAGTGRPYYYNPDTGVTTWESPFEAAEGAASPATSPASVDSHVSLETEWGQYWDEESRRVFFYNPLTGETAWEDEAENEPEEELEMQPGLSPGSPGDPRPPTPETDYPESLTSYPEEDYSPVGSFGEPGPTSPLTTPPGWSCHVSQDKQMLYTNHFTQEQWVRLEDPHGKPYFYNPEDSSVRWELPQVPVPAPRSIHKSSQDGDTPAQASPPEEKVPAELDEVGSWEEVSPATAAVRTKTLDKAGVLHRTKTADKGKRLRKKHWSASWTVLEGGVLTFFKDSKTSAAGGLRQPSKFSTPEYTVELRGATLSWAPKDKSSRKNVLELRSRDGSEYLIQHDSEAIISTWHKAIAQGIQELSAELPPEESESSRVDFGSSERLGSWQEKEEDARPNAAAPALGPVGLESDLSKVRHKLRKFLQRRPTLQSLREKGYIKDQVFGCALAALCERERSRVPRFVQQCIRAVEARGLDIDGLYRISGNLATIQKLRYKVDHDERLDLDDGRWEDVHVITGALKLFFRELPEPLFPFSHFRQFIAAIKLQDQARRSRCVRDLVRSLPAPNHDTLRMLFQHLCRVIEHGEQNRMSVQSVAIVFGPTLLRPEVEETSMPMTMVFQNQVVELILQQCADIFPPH", "UniProt O14497, whole entry, looked up": "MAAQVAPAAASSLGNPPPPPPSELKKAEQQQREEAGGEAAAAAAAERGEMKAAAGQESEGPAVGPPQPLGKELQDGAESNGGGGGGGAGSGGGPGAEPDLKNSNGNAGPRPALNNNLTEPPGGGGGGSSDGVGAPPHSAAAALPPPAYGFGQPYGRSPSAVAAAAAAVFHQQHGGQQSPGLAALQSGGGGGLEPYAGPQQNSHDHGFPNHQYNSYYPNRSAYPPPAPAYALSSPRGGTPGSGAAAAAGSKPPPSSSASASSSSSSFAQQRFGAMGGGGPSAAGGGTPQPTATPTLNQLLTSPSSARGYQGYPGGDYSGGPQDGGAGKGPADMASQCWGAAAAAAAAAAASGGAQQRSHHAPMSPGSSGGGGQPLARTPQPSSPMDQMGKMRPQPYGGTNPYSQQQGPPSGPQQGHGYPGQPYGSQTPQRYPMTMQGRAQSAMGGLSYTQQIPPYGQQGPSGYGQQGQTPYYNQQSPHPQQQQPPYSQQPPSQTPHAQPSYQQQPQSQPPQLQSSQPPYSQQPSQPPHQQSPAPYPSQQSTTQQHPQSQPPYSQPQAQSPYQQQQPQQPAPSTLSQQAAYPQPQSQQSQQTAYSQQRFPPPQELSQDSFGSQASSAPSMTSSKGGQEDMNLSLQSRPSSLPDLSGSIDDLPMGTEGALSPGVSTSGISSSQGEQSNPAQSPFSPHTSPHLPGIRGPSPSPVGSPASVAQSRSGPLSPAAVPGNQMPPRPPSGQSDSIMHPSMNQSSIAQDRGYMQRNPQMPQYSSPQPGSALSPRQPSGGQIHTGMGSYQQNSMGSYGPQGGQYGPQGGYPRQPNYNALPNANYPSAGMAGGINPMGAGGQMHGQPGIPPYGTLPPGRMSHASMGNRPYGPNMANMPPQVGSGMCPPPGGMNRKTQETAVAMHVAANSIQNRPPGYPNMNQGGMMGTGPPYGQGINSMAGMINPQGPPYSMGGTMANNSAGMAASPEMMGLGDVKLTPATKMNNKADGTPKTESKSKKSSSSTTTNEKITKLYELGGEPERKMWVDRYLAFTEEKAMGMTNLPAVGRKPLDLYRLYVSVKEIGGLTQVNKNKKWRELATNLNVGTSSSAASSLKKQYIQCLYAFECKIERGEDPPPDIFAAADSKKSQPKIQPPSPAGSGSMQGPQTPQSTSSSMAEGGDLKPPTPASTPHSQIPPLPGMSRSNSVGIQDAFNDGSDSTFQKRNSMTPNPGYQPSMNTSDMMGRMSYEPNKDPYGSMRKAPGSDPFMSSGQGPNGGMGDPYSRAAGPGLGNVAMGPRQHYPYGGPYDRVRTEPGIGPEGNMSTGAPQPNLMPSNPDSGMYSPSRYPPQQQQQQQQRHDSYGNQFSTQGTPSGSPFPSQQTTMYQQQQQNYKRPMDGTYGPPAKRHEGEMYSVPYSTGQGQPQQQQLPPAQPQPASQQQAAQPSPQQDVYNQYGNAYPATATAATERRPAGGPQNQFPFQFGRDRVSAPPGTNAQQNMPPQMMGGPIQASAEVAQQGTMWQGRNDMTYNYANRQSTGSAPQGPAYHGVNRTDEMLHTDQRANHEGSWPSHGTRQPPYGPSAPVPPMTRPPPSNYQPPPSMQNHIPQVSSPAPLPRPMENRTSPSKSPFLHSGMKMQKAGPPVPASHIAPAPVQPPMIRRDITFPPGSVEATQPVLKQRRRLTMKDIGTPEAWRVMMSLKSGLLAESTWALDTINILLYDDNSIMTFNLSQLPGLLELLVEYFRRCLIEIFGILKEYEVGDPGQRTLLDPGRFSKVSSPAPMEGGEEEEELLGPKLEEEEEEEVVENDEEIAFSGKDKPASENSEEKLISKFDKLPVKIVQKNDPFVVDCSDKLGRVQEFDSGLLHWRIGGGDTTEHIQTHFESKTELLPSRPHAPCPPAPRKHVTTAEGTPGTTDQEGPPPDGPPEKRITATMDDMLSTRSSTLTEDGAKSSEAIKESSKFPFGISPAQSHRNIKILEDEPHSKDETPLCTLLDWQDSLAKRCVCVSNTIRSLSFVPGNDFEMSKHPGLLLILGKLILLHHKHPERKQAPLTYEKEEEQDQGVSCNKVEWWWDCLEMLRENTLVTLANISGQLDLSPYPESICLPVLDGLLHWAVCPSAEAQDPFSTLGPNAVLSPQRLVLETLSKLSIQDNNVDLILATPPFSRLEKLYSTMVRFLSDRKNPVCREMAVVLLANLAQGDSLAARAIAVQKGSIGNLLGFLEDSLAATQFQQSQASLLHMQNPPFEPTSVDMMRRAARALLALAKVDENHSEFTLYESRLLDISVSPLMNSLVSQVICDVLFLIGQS", "UniProt P07741": "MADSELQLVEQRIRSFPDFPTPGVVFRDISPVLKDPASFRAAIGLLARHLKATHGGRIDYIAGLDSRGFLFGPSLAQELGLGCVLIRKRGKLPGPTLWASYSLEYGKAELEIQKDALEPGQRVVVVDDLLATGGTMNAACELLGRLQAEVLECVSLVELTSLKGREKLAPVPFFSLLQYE", "UniProt Q13510, whole entry, looked up": "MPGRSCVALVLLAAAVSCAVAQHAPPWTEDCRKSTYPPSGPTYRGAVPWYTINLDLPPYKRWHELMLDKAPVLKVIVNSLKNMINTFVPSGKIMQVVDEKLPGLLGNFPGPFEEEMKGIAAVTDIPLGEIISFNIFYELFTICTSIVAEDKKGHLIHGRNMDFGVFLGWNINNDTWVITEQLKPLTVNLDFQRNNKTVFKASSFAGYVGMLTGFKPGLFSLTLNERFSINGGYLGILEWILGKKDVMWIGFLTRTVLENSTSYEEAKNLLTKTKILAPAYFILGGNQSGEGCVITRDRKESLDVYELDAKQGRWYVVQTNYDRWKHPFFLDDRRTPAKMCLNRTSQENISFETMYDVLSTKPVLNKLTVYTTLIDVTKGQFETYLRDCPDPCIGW", "UniProt P61204": "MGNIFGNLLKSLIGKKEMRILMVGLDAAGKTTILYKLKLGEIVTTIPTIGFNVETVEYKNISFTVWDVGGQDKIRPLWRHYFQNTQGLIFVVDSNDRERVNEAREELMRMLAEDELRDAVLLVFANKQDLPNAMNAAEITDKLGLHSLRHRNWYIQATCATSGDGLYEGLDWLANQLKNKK"}, "source": "the supplement of paper PMC10849652", "note": "Some of the results follow."}
{"compound": "C1=CC=C(C=C1)[C@H](COC2=CC3=C(C=C2)NC(=O)N3)NC(=O)C4=CC=CN(C4=O)CC5=CC(=C(C=C5)F)F", "assay": "log2 fold change, soluble protein after heating vs DMSO (PISA); higher = thermal stabilisation; K562 lysate, 10 uM; active = over 0.2 and 3.5 SD of the protein, either way, in both replicates (recomputed)", "procedure,_shortened": "(§1)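 To prepare the extract, K562 pellets were dounce-homogenised in PBS pH 7.4 with 1 mM MgCl2, giving crude material at 1 mg/mL protein. This was treated with 10 μM compound for 30 min, then heated in aliquots for 3 min over 48°C-58°C before pooling and addition of NP-40 to 0.5% at 4°C. Centrifugation at 21,000xg for 90 min left soluble protein in the supernatant, which TMTpro 16plex LC-MS/MS quantified with equalised channel sums. Results are log-two fold changes in thermal stability compared with solvent controls, from duplicates.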"}
{"target": "ARSA (UniProt P15289)", "log2 fold change": "inactive: 0.161"}
{"target": "APTX (UniProt Q7Z2E3)", "log2 fold change": "inactive: 0.008"}
{"target": "ARMT1 (UniProt Q9H993)", "log2 fold change": "inactive: -0.042"}
{"target": "ARFGAP2 (UniProt Q8N6H7)", "log2 fold change": "inactive: 0.065"}
{"target": "ARFIP1 isoform 2 (UniProt P53367)", "log2 fold change": "inactive: -0.028"}
{"target": "ARFGEF1 (UniProt Q9Y6D6)", "log2 fold change": "inactive: -0.004"}
{"target": "ARHGAP27 (UniProt Q6ZUM4)", "log2 fold change": "inactive: -0.114"}
{"target": "ARID1A (UniProt O14497)", "log2 fold change": "inactive: -0.019"}
{"target": "ARPC1B (UniProt O15143)", "log2 fold change": "inactive: 0.054"}
{"target": "ARL13B (UniProt Q3SXY8)", "log2 fold change": "inactive: 0.087"}
{"target": "ARHGAP17 (UniProt Q68EM7)", "log2 fold change": "inactive: 0.021"}
{"target": "APRT (UniProt P07741)", "log2 fold change": "inactive: -0.027"}
{"target": "ASAH1 isoform 2 (UniProt Q13510)", "log2 fold change": "inactive: 0.112"}
{"target": "APOBEC3G (UniProt Q9HC16)", "log2 fold change": "inactive: -0.088"}
{"target": "ARPC1A (UniProt Q92747)", "log2 fold change": "inactive: 0.03"}
{"target": "ARF3 (UniProt P61204)", "log2 fold change": "inactive: 0.029"}
{"compound": "CC1=C(SC2=C1C(=N[C@H](C3=NN=C(N32)C)CC(=O)N)C4=CC=C(C=C4)Cl)C", "assay": "log2 fold change, soluble protein after heating vs DMSO (PISA); higher = thermal stabilisation; K562 lysate, 10 uM; active = over 0.2 and 3.5 SD of the protein, either way, in both replicates (recomputed)", "procedure,_shortened": "as §1"}
{"target": "APOH (UniProt P02749)", "log2 fold change": "inactive: 0.014"}
{"target": "ARHGEF11 isoform 2 (UniProt O15085)", "log2 fold change": "inactive: 0.045"}
{"target": "APIP (UniProt Q96GX9)", "log2 fold change": "inactive: -0.034"}
{"target": "APLF (UniProt Q8IW19)", "log2 fold change": "inactive: 0.122"}
{"target": "APC (UniProt P25054)", "log2 fold change": "inactive: 0.053"}
{"target": "ARL2 (UniProt P36404)", "log2 fold change": "inactive: 0.036"}
{"target": "ARID3B (UniProt Q8IVW6)", "log2 fold change": "inactive: -0.038"}
{"target": "ARF4 (UniProt P18085)", "log2 fold change": "inactive: 0.045"}
{"target": "ARCN1 (UniProt P48444)", "log2 fold change": "inactive: 0.018"}
{"target": "ARRB1 isoform 2 (UniProt P49407)", "log2 fold change": "inactive: 0.1"}
{"target": "APOOL (UniProt Q6UXV4)", "log2 fold change": "inactive: 0.009"}
{"target": "ARL2BP (UniProt Q9Y2Y0)", "log2 fold change": "inactive: 0.019"}
{"target": "ARID2 (UniProt Q68CP9)", "log2 fold change": "inactive: -0.09"}
{"target": "ARHGEF12 (UniProt Q9NZN5)", "log2 fold change": "inactive: 0.017"}
{"target": "APOE (UniProt P02649)", "log2 fold change": "inactive: 0.054"}
{"target": "APOO (UniProt Q9BUR5)", "log2 fold change": "inactive: -0.021"}
{"target": "ARL6IP4 isoform 7 (UniProt Q66PJ3)", "log2 fold change": "inactive: -0.304"}
{"target": "ARGLU1 (UniProt Q9NWB6)", "log2 fold change": "inactive: 0.009"}
{"target": "ARPIN isoform 2 (UniProt Q7Z6K5)", "log2 fold change": "inactive: 0.034"}
{"target": "AP5M1 (UniProt Q9H0R1)", "log2 fold change": "inactive: -0.142"}
{"target": "ARL1 (UniProt P40616)", "log2 fold change": "inactive: 0.023"}
{"target": "ARHGAP19 isoform 2 (UniProt Q14CB8)", "log2 fold change": "inactive: -0.259"}
{"target": "ARF6 (UniProt P62330)", "log2 fold change": "inactive: -0.009"}
{"target": "ARSA (UniProt P15289)", "log2 fold change": "inactive: 0.112"}
{"target": "APTX (UniProt Q7Z2E3)", "log2 fold change": "inactive: -0.008"}
{"target": "ARMT1 (UniProt Q9H993)", "log2 fold change": "inactive: 0.008"}
{"target": "ARFGAP2 (UniProt Q8N6H7)", "log2 fold change": "inactive: -0.002"}
{"target": "ARFIP1 isoform 2 (UniProt P53367)", "log2 fold change": "inactive: -0.07"}
{"target": "ARFGEF1 (UniProt Q9Y6D6)", "log2 fold change": "inactive: 0.027"}
{"target": "ARHGAP27 (UniProt Q6ZUM4)", "log2 fold change": "inactive: -0.101"}
{"target": "ARID1A (UniProt O14497)", "log2 fold change": "inactive: 0.024"}
{"target": "ARPC1B (UniProt O15143)", "log2 fold change": "inactive: -0.028"}
{"target": "ARL13B (UniProt Q3SXY8)", "log2 fold change": "inactive: 0.03"}
{"target": "ARHGAP17 (UniProt Q68EM7)", "log2 fold change": "inactive: 0.002"}
{"target": "APRT (UniProt P07741)", "log2 fold change": "inactive: 0.004"}
{"target": "ASAH1 isoform 2 (UniProt Q13510)", "log2 fold change": "inactive: 0.016"}
{"target": "APOBEC3G (UniProt Q9HC16)", "log2 fold change": "inactive: -0.195"}
{"target": "ARPC1A (UniProt Q92747)", "log2 fold change": "inactive: -0.041"}
{"target": "ARF3 (UniProt P61204)", "log2 fold change": "inactive: -0.018"}
{"compound": "CC1=C2C(=CC=C1)N=C(N(C2=O)C3=CC=CC=C3C)CN4C=NC5=C(N=CN=C54)N", "assay": "log2 fold change, soluble protein after heating vs DMSO (PISA); higher = thermal stabilisation; K562 lysate, 10 uM; active = over 0.2 and 3.5 SD of the protein, either way, in both replicates (recomputed)", "procedure,_shortened": "as §1"}
{"target": "ARHGEF11 isoform 2 (UniProt O15085)", "log2 fold change": "inactive: -0.067"}
{"target": "APIP (UniProt Q96GX9)", "log2 fold change": "inactive: 0.052"}
{"target": "APLF (UniProt Q8IW19)", "log2 fold change": "inactive: -0.028"}
{"target": "APC (UniProt P25054)", "log2 fold change": "inactive: 0.087"}
{"target": "ARL2 (UniProt P36404)", "log2 fold change": "inactive: 0.005"}
{"target": "ARID3B (UniProt Q8IVW6)", "log2 fold change": "inactive: 0.108"}
{"target": "ARF4 (UniProt P18085)", "log2 fold change": "inactive: 0.038"}
{"target": "ARCN1 (UniProt P48444)", "log2 fold change": "inactive: 0.003"}
{"target": "ARRB1 isoform 2 (UniProt P49407)", "log2 fold change": "inactive: 0.043"}
{"target": "APOOL (UniProt Q6UXV4)", "log2 fold change": "inactive: -0.005"}
{"target": "ARL2BP (UniProt Q9Y2Y0)", "log2 fold change": "inactive: -0.031"}
{"target": "ARID2 (UniProt Q68CP9)", "log2 fold change": "inactive: -0.007"}
{"target": "ARHGEF12 (UniProt Q9NZN5)", "log2 fold change": "inactive: -0.001"}
{"target": "APOE (UniProt P02649)", "log2 fold change": "inactive: -0.036"}
{"target": "APOO (UniProt Q9BUR5)", "log2 fold change": "inactive: 0.015"}
{"target": "ARGLU1 (UniProt Q9NWB6)", "log2 fold change": "inactive: 0.036"}
{"target": "ARPIN isoform 2 (UniProt Q7Z6K5)", "log2 fold change": "inactive: 0.109"}
{"target": "AP5M1 (UniProt Q9H0R1)", "log2 fold change": "inactive: -0.061"}
{"target": "ARL1 (UniProt P40616)", "log2 fold change": "inactive: 0.051"}
{"target": "ARHGAP19 isoform 2 (UniProt Q14CB8)", "log2 fold change": "inactive: 0.047"}
{"target": "ARF6 (UniProt P62330)", "log2 fold change": "inactive: 0.025"}
{"target": "ARSA (UniProt P15289)", "log2 fold change": "inactive: -0.075"}
{"target": "APTX (UniProt Q7Z2E3)", "log2 fold change": "inactive: -0.067"}
{"target": "ARMT1 (UniProt Q9H993)", "log2 fold change": "inactive: -0.01"}
{"target": "ARFGAP2 (UniProt Q8N6H7)", "log2 fold change": "inactive: 0.023"}
{"target": "ARFIP1 isoform 2 (UniProt P53367)", "log2 fold change": "inactive: 0.043"}
{"target": "ARFGEF1 (UniProt Q9Y6D6)", "log2 fold change": "inactive: 0.009"}
{"target": "ARHGAP27 (UniProt Q6ZUM4)", "log2 fold change": "inactive: 0.063"}
{"target": "ARID1A (UniProt O14497)", "log2 fold change": "inactive: -0.004"}
{"target": "ARPC1B (UniProt O15143)", "log2 fold change": "inactive: 0.03"}
{"target": "ARL13B (UniProt Q3SXY8)", "log2 fold change": "inactive: 0.012"}
{"target": "ARHGAP17 (UniProt Q68EM7)", "log2 fold change": "inactive: 0.011"}
{"target": "APRT (UniProt P07741)", "log2 fold change": "inactive: 0.021"}
{"target": "ASAH1 isoform 2 (UniProt Q13510)", "log2 fold change": "inactive: -0.027"}
{"target": "APOBEC3G (UniProt Q9HC16)", "log2 fold change": "inactive: -0.051"}
{"target": "ARPC1A (UniProt Q92747)", "log2 fold change": "inactive: 0.017"}
{"target": "ARF3 (UniProt P61204)", "log2 fold change": "inactive: -0.012"}
